In doi:10.1101/679431:
No constants are given. Whether binding was seen depends on the method and setting. Binding seen in cells or lysates may run through a third protein. Here binding means that the protein was enriched with, or labelled near, the bait; the list need not be complete. A no says only that the protein was not detected with the bait. For some of these results: Tags and fused reporters may be left off the sequences shown.

Amino acid sequences for entries named in this document (tags omitted). Residues count along the entry.
UniProt P10809, residues 27-573: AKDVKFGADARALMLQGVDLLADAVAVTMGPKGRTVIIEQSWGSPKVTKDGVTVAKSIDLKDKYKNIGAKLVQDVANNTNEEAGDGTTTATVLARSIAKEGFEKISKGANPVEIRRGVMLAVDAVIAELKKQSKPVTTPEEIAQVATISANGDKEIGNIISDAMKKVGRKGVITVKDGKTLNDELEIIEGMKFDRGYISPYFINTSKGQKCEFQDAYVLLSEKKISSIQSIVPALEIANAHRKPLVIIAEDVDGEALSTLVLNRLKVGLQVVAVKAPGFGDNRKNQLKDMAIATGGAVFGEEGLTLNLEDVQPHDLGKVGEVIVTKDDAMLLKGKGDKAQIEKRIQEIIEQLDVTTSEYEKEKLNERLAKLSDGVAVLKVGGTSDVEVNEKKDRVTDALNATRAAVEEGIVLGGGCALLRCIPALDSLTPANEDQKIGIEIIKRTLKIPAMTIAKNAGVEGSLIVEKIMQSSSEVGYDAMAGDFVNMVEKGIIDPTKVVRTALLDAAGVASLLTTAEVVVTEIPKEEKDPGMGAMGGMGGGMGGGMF
UniProt P40939, residues 37-763: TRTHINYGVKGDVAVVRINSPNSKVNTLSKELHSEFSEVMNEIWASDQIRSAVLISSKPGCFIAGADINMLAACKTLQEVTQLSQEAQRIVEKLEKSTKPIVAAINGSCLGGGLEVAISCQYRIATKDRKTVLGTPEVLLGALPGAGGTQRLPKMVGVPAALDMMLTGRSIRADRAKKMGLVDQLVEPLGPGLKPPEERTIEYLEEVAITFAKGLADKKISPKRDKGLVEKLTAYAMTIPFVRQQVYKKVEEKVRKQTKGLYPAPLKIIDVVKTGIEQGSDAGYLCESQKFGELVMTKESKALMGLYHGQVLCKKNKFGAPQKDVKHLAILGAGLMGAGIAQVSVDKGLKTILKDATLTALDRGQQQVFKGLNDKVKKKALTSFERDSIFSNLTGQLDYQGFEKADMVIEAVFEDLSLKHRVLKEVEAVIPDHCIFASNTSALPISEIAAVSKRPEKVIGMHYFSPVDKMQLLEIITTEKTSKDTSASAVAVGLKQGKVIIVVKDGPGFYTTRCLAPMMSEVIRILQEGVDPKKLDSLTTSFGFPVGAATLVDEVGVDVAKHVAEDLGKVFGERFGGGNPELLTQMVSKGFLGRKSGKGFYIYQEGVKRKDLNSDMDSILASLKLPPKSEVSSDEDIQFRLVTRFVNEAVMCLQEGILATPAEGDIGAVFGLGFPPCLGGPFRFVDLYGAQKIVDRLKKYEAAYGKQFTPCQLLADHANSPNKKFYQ
UniProt Q9BXM7, residues 78-581: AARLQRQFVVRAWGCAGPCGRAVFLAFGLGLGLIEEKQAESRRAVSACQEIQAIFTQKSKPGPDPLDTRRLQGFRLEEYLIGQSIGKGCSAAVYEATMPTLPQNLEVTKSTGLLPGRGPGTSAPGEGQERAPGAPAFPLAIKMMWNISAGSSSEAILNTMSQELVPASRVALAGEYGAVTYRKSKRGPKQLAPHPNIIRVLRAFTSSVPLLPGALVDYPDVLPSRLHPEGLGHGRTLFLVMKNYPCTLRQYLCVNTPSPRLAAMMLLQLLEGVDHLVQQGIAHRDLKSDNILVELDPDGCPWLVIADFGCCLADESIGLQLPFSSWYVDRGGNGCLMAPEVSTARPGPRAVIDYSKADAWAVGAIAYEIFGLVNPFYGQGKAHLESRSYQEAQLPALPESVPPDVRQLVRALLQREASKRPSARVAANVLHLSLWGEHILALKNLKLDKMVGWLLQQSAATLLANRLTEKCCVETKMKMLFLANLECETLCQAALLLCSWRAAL
UniProt P31040, residues 43-664: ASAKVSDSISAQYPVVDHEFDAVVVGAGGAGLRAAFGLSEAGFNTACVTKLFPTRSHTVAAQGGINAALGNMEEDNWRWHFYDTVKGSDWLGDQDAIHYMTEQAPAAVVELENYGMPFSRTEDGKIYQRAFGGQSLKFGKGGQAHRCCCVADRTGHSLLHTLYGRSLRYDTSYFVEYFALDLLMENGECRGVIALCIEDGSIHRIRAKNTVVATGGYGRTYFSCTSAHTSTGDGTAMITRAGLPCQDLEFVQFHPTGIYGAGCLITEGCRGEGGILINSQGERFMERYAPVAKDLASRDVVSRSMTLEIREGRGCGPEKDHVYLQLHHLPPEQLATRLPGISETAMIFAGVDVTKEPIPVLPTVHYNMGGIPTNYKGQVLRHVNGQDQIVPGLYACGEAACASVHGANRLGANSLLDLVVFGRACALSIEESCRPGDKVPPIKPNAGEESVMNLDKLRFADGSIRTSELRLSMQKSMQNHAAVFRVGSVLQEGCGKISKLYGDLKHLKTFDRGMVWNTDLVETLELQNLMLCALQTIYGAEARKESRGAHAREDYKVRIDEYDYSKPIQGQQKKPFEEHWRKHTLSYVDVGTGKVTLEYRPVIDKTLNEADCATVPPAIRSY
UniProt P30405, residues 30-207: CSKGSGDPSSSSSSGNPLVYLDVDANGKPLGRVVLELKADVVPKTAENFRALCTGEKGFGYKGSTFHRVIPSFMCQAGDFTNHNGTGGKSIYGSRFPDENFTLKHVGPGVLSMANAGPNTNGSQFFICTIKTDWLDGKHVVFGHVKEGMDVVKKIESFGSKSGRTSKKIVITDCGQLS
UniProt P15104: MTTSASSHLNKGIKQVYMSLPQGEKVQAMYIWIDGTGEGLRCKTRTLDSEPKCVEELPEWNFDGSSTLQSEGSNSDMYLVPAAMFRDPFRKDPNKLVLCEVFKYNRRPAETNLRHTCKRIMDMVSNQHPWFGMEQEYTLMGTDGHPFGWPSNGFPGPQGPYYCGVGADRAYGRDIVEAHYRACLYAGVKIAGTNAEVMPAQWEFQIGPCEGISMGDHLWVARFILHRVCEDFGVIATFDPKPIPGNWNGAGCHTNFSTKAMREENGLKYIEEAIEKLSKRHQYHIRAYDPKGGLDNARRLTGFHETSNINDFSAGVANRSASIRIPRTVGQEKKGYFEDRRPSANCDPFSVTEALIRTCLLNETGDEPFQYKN

Tests used:
[1] = target: T1, TRAP1 double point mutant E115A/R402A with C-terminal HA tag (human) (UniProt Q12931); assay: affinity purification with mass spectrometry
T1 sequence: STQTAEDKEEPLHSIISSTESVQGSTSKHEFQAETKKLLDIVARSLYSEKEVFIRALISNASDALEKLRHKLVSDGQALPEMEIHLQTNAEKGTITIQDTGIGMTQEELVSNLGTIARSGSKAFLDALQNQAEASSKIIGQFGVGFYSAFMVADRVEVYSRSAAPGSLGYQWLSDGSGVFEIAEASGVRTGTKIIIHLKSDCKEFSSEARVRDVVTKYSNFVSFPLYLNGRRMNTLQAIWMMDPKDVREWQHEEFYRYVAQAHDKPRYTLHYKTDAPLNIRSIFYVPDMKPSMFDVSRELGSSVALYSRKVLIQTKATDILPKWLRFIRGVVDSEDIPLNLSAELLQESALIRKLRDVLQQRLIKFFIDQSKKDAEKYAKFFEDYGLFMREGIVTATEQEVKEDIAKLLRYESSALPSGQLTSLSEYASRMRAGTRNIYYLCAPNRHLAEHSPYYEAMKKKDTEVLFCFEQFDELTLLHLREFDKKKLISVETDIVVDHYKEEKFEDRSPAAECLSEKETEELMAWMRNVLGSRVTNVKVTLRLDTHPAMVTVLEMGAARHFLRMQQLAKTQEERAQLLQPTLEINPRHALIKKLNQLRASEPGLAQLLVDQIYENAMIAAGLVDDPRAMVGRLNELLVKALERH

[2] = target: WT TRAP1 with C-terminal HA tag (pcDNA3.1 (+) MTS-HA vector) (human) (UniProt Q12931); assay: affinity purification with mass spectrometry

binding [1]	binding [2]	Substance
binds	–	CH60 (HSP60) (from UniProt P10809 27-573)
binds	binds	ECHA (from UniProt P40939 37-763) (enzyme)
no binding	–	PINK1 (from UniProt Q9BXM7 78-581)
–	binds	SDHA (from UniProt P31040 43-664)
no binding	–	cyclophilin D (from UniProt P30405 30-207)
no binding	–	glutamate dehydrogenase (human (endogenous in HEK293T)) (enzyme)
no binding	–	glutaminase (human (endogenous in HEK293T)) (enzyme)
no binding	no binding	glutamine synthase (from UniProt P15104 1-373) (enzyme)
